We go through one substance from publication PMC12667467.

Sequences of proteins named here, by UniProt entry; tags and fusion partners are left off. A change or cut given only in a name is not applied to a line headed by its entry.
UniProt Q01094: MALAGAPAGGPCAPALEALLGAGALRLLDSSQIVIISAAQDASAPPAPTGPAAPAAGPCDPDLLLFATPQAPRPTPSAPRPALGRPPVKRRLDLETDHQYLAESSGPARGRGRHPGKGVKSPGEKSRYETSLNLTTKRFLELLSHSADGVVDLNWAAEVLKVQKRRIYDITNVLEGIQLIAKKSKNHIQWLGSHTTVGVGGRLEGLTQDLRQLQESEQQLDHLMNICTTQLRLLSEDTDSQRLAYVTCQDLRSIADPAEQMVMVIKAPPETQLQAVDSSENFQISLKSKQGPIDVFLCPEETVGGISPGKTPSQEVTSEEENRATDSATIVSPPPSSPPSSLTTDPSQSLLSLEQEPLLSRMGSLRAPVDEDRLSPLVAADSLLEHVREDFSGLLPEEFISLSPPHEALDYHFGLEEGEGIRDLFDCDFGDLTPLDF
UniProt Q7KZF4: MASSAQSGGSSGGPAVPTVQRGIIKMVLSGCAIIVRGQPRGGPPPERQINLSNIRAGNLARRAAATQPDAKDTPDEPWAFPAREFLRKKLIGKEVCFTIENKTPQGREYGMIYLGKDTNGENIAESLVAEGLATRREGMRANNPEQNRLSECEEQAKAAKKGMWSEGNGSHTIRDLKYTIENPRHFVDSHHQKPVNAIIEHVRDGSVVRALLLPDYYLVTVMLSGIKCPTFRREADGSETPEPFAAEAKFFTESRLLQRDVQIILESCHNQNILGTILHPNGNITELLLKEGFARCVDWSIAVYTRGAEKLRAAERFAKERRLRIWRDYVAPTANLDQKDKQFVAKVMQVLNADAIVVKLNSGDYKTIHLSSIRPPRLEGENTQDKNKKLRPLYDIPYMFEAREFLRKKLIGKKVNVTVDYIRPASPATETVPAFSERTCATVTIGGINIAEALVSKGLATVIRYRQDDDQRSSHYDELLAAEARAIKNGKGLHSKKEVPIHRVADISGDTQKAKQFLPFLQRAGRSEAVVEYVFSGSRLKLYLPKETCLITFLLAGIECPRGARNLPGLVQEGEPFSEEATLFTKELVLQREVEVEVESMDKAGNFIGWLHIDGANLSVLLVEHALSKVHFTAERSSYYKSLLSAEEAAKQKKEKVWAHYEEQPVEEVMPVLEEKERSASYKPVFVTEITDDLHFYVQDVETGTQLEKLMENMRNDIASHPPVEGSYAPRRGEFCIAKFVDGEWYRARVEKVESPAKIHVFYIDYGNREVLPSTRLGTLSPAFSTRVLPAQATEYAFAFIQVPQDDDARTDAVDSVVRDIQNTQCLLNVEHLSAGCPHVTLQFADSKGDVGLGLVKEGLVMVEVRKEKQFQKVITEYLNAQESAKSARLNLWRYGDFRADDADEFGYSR

These are yes or no findings as the source states them, for the method shown. Binding seen in cells or lysates may run through a third protein. Some entries that bind do so weakly or less than the wild type.

The target of the assay is E2F transcription factor 1 (E2F1) (human (endogenous in MCF7 and T-47D)) (UniProt Q01094). Description: co-IP; whole-cell extracts of MCF7 and T-47D cells (IP lysis buffer: 50 mM Tris-HCl pH 8.1, 10 mM EDTA, 1% SDS); IP with anti-SND1 or anti-E2F1 antibodies overnight at 4 °C, Dynabeads, western blot; normal rabbit IgG as negative control; cells untreated or treated with 0.1 µM palbociclib for 24 h.

Consider “staphylococcal nuclease domain‐containing protein 1 (SND1) (from UniProt Q7KZF4 1-910)”, for which the binding entry is given as “binds”.
